TEAD-luciferase reporter activity data for 28 molecules are collected here from the supplement of paper PMC10735217.

The subject of this test is HEK293A TEAD-LUC reporter. Put plainly: TEAD-luciferase reporter activity (YAP activation), robust Z score vs plate; higher = stronger YAP/TEAD activation. To be noted: 24 h.

Structures can show the parent of a compound that is named as a salt. This is one part of the list. This data set is noisy: repeats of one test often differ as much as different tests do.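 The human kidney-derived cells carry a stably integrated construct of eight TEAD-binding elements driving luciferase, read by luminescence in a drug-repurposing library screen. A compound counts as a hit when its signal is more than five robust Z scores above the plate mean.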

`C[C@@H]1CCC[C@H](C)N1[n+]1cc([NH-])on1`: the TEAD-luciferase reporter activity (compound concentration: 200 nM) is inactive: -0.411, the TEAD-luciferase reporter activity (compound concentration: 2 uM) is inactive: -2.25 and the TEAD-luciferase reporter activity (compound concentration: 10 uM) was inactive: 1.47.

In the case of `c1ccc(SCCCNCCC(c2ccccc2)c2ccccc2)cc1` [tiopropamine], the TEAD-luciferase reporter activity is inactive: -0.43 (compound concentration: 200 nM), inactive: -0.747 (compound concentration: 2 uM) and inactive: 3.27 (compound concentration: 10 uM).

Turning to `CN1CCN(C2=Nc3cc(F)ccc3Cc3ccccc32)CC1` [fluperlapine], under “compound concentration: 2 uM”, the TEAD-luciferase reporter activity is inactive: 0.816.

Turning to `CN1CCN(C2=Nc3cc(F)ccc3Cc3ccccc32)CC1`, the TEAD-luciferase reporter activity by setting is: (compound concentration: 200 nM) inactive: -1.76; (compound concentration: 10 uM) inactive: -0.382.

As to `C[C@@H]1C[C@@](N)(C(=O)O)[C@H]2C1[C@@H]2C(=O)O` (some centres not stated), the TEAD-luciferase reporter activity by setting is: (compound concentration: 200 nM) inactive: -1.44; (compound concentration: 2 uM) inactive: 0.736; (compound concentration: 10 uM) inactive: 0.726.

As to `CN(C)CCCC1(CCCN(C)C)c2ccccc2Nc2ccc(Cl)cc21`, the TEAD-luciferase reporter activity is, setting by setting: (compound concentration: 200 nM) inactive: -1.13; (compound concentration: 2 uM) inactive: 2.89; (compound concentration: 10 uM) inactive: -0.641.

As for `COc1ccc(CNCC(O)COc2ccc3[nH]c(=O)ccc3c2)cc1OC` (configuration not stated), the TEAD-luciferase reporter activity (compound concentration: 200 nM) is inactive: -1.47, the TEAD-luciferase reporter activity (compound concentration: 2 uM) was inactive: 0.0728 and the TEAD-luciferase reporter activity (compound concentration: 10 uM) is inactive: 3.33.

Take `CCCOc1ccc2c(c1)CC[C@@H]1[C@@H]2CC[C@]2(C)[C@@H](OC)CC[C@@H]12` [promestriene]: the TEAD-luciferase reporter activity was inactive: -0.251 (compound concentration: 200 nM), inactive: -0.415 (compound concentration: 2 uM) and inactive: -1.02 (compound concentration: 10 uM).

For `CCCCNC(=O)Nc1c(C)cccc1OCCCn1cnc(-c2ccccc2)c1CC`, the TEAD-luciferase reporter activity is inactive: 1.94 (compound concentration: 200 nM), inactive: 0.24 (compound concentration: 2 uM) and active: 5.06 (compound concentration: 10 uM).

Regarding `CC[C@H](C)[C@H](NC(=O)[C@H](Cc1ccc(O)cc1)NC(=O)[C@@H](NC(=O)[C@H](CCCNC(=N)N)NC(=O)[C@@H](N)CC(=O)O)C(C)C)C(=O)N[C@@H](Cc1c[nH]cn1)C(=O)N1CCC[C@H]1C(=O)O` [Angiotensin (1-7)], the TEAD-luciferase reporter activity reads like this: (compound concentration: 200 nM) inactive: -0.762; (compound concentration: 10 uM) inactive: -0.169.

`COc1cccc(OC)c1-c1ccc(C[C@H](NC(=O)c2c(Cl)cccc2Cl)C(=O)O)cc1`: the TEAD-luciferase reporter activity is inactive: -0.199 (compound concentration: 200 nM), inactive: -1.05 (compound concentration: 2 uM) and inactive: -0.117 (compound concentration: 10 uM).

Consider `Cn1c(-c2ccccc2C(F)(F)F)nnc1C12CCC(c3noc(C4CC(F)(F)C4)n3)(CC1)CC2`, for which the TEAD-luciferase reporter activity was inactive: -0.448 (compound concentration: 200 nM), inactive: 1.47 (compound concentration: 2 uM) and inactive: 1.08 (compound concentration: 10 uM).

With `CC1(C)CC[C@]2(NC(=O)C(C)(F)F)CC[C@]3(C)[C@H](C(=O)C=C4[C@@]5(C)C=C(C#N)C(=O)C(C)(C)[C@@H]5CC[C@]43C)[C@@H]2C1`, the TEAD-luciferase reporter activity is, setting by setting: (compound concentration: 200 nM) active: 6.07; (compound concentration: 2 uM) inactive: -0.518; (compound concentration: 10 uM) inactive: 1.49.

For `CCCC(=O)N1Cc2ccccc2CC2(CCCN2CCC)C1` (configuration not stated), the TEAD-luciferase reporter activity is, setting by setting: (compound concentration: 200 nM) inactive: -0.377; (compound concentration: 10 uM) inactive: 1.38.

Take `CC(C)Cn1cnc2c(N)nc3cccnc3c21` [Epetirimod esilate]: the TEAD-luciferase reporter activity runs as follows: (compound concentration: 200 nM) inactive: -0.663; (compound concentration: 2 uM) inactive: -0.447; (compound concentration: 10 uM) inactive: 0.573.

Turning to `COC(=O)C(C)Oc1ccc(Cl)c(Cl)c1` (configuration not stated), the TEAD-luciferase reporter activity reads like this: (compound concentration: 200 nM) inactive: 2.2; (compound concentration: 2 uM) inactive: 0.548; (compound concentration: 10 uM) inactive: -1.47.

Consider `CC(C)(C)C(=O)N1CCC(n2c(=O)[nH]c3ccccc32)CC1`, for which the TEAD-luciferase reporter activity was inactive: -0.215 (compound concentration: 200 nM) and inactive: 3.63 (compound concentration: 10 uM).

With `CCNC(=O)c1ccc(Oc2cc(NC(=O)N3CCC(O)(CC(CC)CC)CC3)cc(Oc3ccc(F)cc3)c2)cc1`, the TEAD-luciferase reporter activity is inactive: 0.169 (compound concentration: 200 nM), inactive: -1.2 (compound concentration: 2 uM) and inactive: 0.596 (compound concentration: 10 uM).

Turning to `O=C1c2ccc(O)c(Br)c2OCC1c1ccc(O)cc1` (configuration not stated), the TEAD-luciferase reporter activity was inactive: -0.249 (compound concentration: 200 nM), inactive: -0.126 (compound concentration: 2 uM) and inactive: -0.821 (compound concentration: 10 uM).

`FC(F)(F)c1cccnc1-c1ccc(-c2nc3ccc(Br)cc3[nH]2)nc1`: the TEAD-luciferase reporter activity (compound concentration: 200 nM) was inactive: -1.75, the TEAD-luciferase reporter activity (compound concentration: 2 uM) is inactive: 0.802 and the TEAD-luciferase reporter activity (compound concentration: 10 uM) is inactive: -0.48.

With `CCOc1nc2cccc(C(=O)OC(C)OC(=O)OC3CCCCC3)c2n1Cc1ccc(-c2ccccc2-c2nnn[nH]2)cc1` (configuration not stated) [candesartan cilexetil, GlaxoSmithKline], the TEAD-luciferase reporter activity (compound concentration: 200 nM) is inactive: -0.701, the TEAD-luciferase reporter activity (compound concentration: 2 uM) is inactive: -0.388 and the TEAD-luciferase reporter activity (compound concentration: 10 uM) was inactive: 1.12.

As for `CONC(=O)Nc1ccc(-c2sc3c(c2CN(C)C)c(=O)n(-c2ccc(OC)nn2)c(=O)n3Cc2c(F)cccc2F)cc1` [Relugolix], the TEAD-luciferase reporter activity runs as follows: (compound concentration: 200 nM) inactive: 0.309; (compound concentration: 2 uM) inactive: -0.876; (compound concentration: 10 uM) inactive: 2.48.

On to `Cc1nc(C)c(Cl)c(NS(=O)(=O)c2ccc(N)cc2)n1`, for which the TEAD-luciferase reporter activity (compound concentration: 200 nM) was inactive: -0.879, the TEAD-luciferase reporter activity (compound concentration: 2 uM) is inactive: 0.361 and the TEAD-luciferase reporter activity (compound concentration: 10 uM) was inactive: -0.862.

Take `CCn1c(=O)c(-c2cc[nH]n2)cc2c(C)nc(N)nc21` [Voxtalisib hydrochloride]: the TEAD-luciferase reporter activity (compound concentration: 200 nM) was inactive: -0.0274, the TEAD-luciferase reporter activity (compound concentration: 2 uM) is inactive: -0.835 and the TEAD-luciferase reporter activity (compound concentration: 10 uM) is inactive: -1.86.

In the case of `OC[C@H]1O[C@@H](Oc2ccc(O)cc2)C(O)[C@@H](O)C1O` (some centres not stated) [Arbutin (Hydroqui-glucose], for the setting “compound concentration: 200 nM”, the TEAD-luciferase reporter activity was inactive: 0.586.

In the case of `OC[C@H]1O[C@@H](Oc2ccc(O)cc2)C(O)[C@@H](O)C1O` (some centres not stated) [Arbutin (Hydroqui  -glucose], for the setting “compound concentration: 10 uM”, the TEAD-luciferase reporter activity was inactive: 1.7.

As for `OC[C@H]1O[C@@H](Oc2ccc(O)cc2)C(O)[C@@H](O)C1O` (some centres not stated) [Arbutin (Hydroqui   -glucose_:_ Arbutoside_:_ Ericolin)], the TEAD-luciferase reporter activity (compound concentration: 2 uM) is inactive: -1.29.

In the case of `CCC(=O)O[C@@H]1CC(=O)O[C@H](C)C/C=C/C=C/[C@H](OC(C)=O)[C@H](C)C[C@H](CC=O)[C@H](O[C@@H]2O[C@H](C)[C@@H](O[C@H]3C[C@@](C)(OC(C)=O)[C@@H](OC(=O)CC)[C@H](C)O3)[C@H](N(C)C)[C@H]2O)[C@H]1OC` [Midecamycin acetate], the TEAD-luciferase reporter activity is inactive: -1.07 (compound concentration: 200 nM), inactive: -0.761 (compound concentration: 2 uM) and inactive: -0.0122 (compound concentration: 10 uM).
